Data reported in US20250249119A1.
No constants are given. Whether binding was seen depends on the method and setting. Some entries that bind do so weakly or less than the wild type.

Experiments:
[1] = molecular target: recombinant cynomolgus monkey (Macaca fascicularis) TfR1 (cynomolgus monkey (Macaca fascicularis)); assay: ELISA, conjugate against unconjugated Fab (FIGS. 11E, 11F)
[2] = molecular target: recombinant human TfR1 (human) (UniProt P02786); assay: as above

B1: humanized anti-TfR Fab 5H12 VH5 (C33Y)/Vκ4 conjugated to DMPK-targeting oligonucleotide ASO300 (Fab, V domains shown)
VH: QVQLVQSGAEVKKPGASVKVSCKASGYSFTDYYINWVRQAPGQGLEWMGWIYPGSGNTRYSERFKGRVTITRDTSASTAYMELSSLRSEDTAVYYCAREDYYPYHGMDYWGQGTLVTVSS
VL: DIVMTQSPDSLAVSLGERATINCRASESVDGYDNSFMHWYQQKPGQPPKLLIFRASNLESGVPDRFSGSGSGTDFTLTISSLQAEDVAVYYCQQSSEDPWTFGQGTKLEIKR
modifications: oligonucleotide ASO300 conjugated to the Fab; chain and residue not stated
In the case of B1, the binding [1] is reported as “binds” and the binding [2] is reported as “binds”.
